Counter-ions that a name gives are not always drawn. Some of the results follow. Small differences around the control level are noise.
Tested on: hPSC-derived cortical neurons (WA09)
Assay: nucleus roundness z-score vs screen plate; higher = rounder nuclei (more mature)
Settings: 5 µM; treatment: days 7-14 after plating, readout day 21

Question: With `N.N.O=C([O-])C[O-].[Pt+2]` [Nedaplatin] as the compound, how does the nucleus roundness z-score read?
Answer: 1.38

Question: With `CCC1(c2c[nH]cn2)Cc2ccccc2C1` [Atipamezole] as the compound, how does the nucleus roundness z-score read?
Answer: 0.322

Question: With `CN1CCc2c(c3ccccc3n2Cc2ccc(C(=O)NO)cc2)C1` [Tubastatin A HCl] as the compound, how does the nucleus roundness z-score read?
Answer: 0.36

Question: For `O=C(CCNNC(=O)c1ccncc1)NCc1ccccc1` [Nialamide], which nucleus roundness z-score is on record?
Answer: -0.744

Question: With `CC(=O)OCC(=O)[C@@]12N=C(C)O[C@@H]1C[C@H]1[C@@H]3CCC4=CC(=O)C=C[C@]4(C)[C@H]3[C@@H](O)C[C@@]12C` [Deflazacort] as the compound, how does the nucleus roundness z-score read?
Answer: 0.875

Question: Which nucleus roundness z-score does the source give for `Cc1cc(NS(=O)(=O)c2ccc(N)cc2)no1` [Sulfamethoxazole] here?
Answer: 0.29

Question: Which nucleus roundness z-score does the source give for `Oc1nc(-c2ccc(C(F)(F)F)cc2)nc2c1CSCC2` here?
Answer: -0.859

Question: How did the nucleus roundness z-score turn out when `CC1(COc2ccc3c(c2)ncn3-c2ccc3cccc(N4CCC(N)CC4)c3n2)COC1` was run?
Answer: -0.381

Question: For `N=C(N)N` [Guanidine HCl], which nucleus roundness z-score is on record?
Answer: -0.0206

Question: Which nucleus roundness z-score does the source give for `Cc1cnc(C(=O)NCCc2ccc(S(=O)(=O)NC(=O)NC3CCCCC3)cc2)cn1` [Glipizide] here?
Answer: 1.76

Question: How did the nucleus roundness z-score turn out when `Nc1ncnc2c1c(-c1cnc3[nH]ccc3c1)nn2C1CCCC1` was run?
Answer: -3.63

Question: For `C/C=C1/[C@H](O[C@@H]2O[C@H](CO)[C@@H](O)[C@H](O)[C@H]2O)OC=C(C(=O)OC)[C@H]1CC(=O)OCCc1ccc(O)c(O)c1` [Oleuropein], which nucleus roundness z-score is on record?
Answer: -0.187

Question: With `N#Cc1ccc(-c2c(-c3ncn[nH]3)sc(N3CCOCC3)c2C#N)c(F)c1` as the compound, how does the nucleus roundness z-score read?
Answer: -2.69

Question: `CC(=O)Oc1cc2c(s1)CCN(C(C(=O)C1CC1)c1ccccc1F)C2` (stereo not given) [Prasugrel] was tested. Which nucleus roundness z-score did it give?
Answer: -1.04

Question: For `O=C(Nc1ccc(-c2ccnc(Nc3ccc(N4CCOCC4)cc3)n2)cc1)C1CCCN1` (stereo not given), which nucleus roundness z-score is on record?
Answer: -0.329

From the supplement of paper PMC11348887
